Measurements taken from patent US20020172680A1.
Results are given in words; binding and its absence hold for the method and conditions named. Binding seen in cells or lysates may run through a third protein. Some entries that bind do so weakly or less than the wild type.

Protein sequences, listed by entry. Tags and fused reporters are not part of them. Residues count along the entry.
UniProt Q8VDD5, residues 2-1960: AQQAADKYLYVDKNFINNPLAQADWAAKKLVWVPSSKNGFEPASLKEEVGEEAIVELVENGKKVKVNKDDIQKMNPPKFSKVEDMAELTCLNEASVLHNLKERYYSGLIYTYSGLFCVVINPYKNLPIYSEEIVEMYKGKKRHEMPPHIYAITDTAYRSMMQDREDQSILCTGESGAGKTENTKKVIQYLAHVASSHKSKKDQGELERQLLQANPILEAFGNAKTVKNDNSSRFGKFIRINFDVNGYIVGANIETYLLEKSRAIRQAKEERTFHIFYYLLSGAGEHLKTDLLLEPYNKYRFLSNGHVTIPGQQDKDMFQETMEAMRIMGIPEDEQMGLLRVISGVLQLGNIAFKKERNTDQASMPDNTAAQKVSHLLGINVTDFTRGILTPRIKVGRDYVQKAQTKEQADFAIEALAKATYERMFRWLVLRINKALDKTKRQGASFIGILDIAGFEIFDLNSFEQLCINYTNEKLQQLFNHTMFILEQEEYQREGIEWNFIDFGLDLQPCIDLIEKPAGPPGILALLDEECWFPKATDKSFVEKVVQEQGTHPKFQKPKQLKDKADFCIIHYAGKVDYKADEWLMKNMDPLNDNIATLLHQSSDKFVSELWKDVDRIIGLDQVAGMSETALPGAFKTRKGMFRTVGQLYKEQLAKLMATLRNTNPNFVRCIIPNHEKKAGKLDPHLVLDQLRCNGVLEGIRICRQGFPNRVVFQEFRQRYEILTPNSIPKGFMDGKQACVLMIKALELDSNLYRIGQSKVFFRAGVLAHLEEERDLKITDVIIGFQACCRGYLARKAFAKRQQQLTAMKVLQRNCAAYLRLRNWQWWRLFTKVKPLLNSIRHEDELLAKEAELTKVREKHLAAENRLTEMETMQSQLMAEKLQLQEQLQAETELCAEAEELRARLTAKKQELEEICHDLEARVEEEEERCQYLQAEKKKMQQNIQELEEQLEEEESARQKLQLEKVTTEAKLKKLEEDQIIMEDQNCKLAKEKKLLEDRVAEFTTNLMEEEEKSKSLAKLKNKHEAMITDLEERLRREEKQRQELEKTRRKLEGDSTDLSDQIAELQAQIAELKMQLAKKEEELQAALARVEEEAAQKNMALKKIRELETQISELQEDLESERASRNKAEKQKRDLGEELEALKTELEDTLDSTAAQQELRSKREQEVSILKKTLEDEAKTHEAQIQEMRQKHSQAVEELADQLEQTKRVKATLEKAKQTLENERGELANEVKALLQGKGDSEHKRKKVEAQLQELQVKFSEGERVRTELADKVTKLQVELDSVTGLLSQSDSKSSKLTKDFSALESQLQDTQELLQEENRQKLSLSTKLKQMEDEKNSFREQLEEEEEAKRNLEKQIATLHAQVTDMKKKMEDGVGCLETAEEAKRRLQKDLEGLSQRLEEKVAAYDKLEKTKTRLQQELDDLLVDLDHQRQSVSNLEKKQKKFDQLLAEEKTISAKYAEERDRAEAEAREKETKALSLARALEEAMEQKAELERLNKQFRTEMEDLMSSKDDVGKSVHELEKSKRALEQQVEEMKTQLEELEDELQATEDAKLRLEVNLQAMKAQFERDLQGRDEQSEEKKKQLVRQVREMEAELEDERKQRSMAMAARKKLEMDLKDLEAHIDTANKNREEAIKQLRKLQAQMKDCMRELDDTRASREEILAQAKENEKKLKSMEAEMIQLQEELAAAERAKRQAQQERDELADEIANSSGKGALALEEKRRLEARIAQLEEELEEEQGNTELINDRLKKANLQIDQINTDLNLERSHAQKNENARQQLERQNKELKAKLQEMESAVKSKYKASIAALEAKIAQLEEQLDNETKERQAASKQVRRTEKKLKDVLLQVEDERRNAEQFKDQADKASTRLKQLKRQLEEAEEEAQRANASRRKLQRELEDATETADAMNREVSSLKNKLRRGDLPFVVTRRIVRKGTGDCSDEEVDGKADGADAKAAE
UniProt P07091, residues 2-101: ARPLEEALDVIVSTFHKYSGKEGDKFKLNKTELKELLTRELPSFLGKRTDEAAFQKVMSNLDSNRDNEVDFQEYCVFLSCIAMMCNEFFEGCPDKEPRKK

Molecular target: heavy chain of the non-muscle myosin (200 kDa), cellular, in CSML cell lysates (mouse) (UniProt Q8VDD5)
Assay: co-immunoprecipitation from CSML-100 lysates with anti-Mts1 antibody

binding: binds
Substance: mts-1 protein (mouse, endogenous: CSML-100 cells, mouse spleen, serum of mice injected with CSML-100 cells) (from UniProt P07091 2-101)
